Data reported in article PMC5692476, “Effects of Periplasmic Chaperones and Membrane Thickness on BamA-Catalyzed Outer-Membrane Protein Folding” (Journal of Molecular Biology, 2017).
No constants are given. Whether binding was seen depends on the method and setting.

Molecular target: T1, Skp (Escherichia coli) (UniProt P0AEU7)
T1 sequence: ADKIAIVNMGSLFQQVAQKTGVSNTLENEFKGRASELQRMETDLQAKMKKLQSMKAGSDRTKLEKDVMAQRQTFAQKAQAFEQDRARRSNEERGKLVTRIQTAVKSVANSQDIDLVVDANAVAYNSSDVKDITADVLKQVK
Experiment: native MS; nano-ESI; proteins alone or pre-mixed 1:1; tOmpA diluted from 8 M urea into Skp or SurA (all 1 μM final, 0.2 M urea, 50 mM glycine–NaOH pH 9.5), 5 min at room temperature, then buffer exchange into 200 mM ammonium acetate pH 10; both purified

B1: SurA (natural protein, Escherichia coli, UniProt P0ABZ6 21-428, looked up)
chain: APQVVDKVAAVVNNGVVLESDVDGLMQSVKLNAAQARQQLPDDATLRHQIMERLIMDQIILQMGQKMGVKISDEQLDQAIANIAKQNNMTLDQMRSRLAYDGLNYNTYRNQIRKEMIISEVRNNEVRRRITILPQEVESLAQQVGNQNDASTELNLSHILIPLPENPTSDQVNEAESQARAIVDQARNGADFGKLAIAHSADQQALNGGQMGWGRIQELPGIFAQALSTAKKGDIVGPIRSGVGFHILKVNDLRGESKNISVTEVHARHILLKPSPIMTDEQARVKLEQIAADIKSGKTTFAAAAKEFSQDPGSANQGGDLGWATPDIFDPAFRDALTRLNKGQMSAPVHSSFGWHLIELLDTRNVDKTDAAQKDRAYRMLMNRKFSEEAASWMQEQRASAYVKILSN
notes: SurA, periplasmic chaperone of Escherichia coli; Probably the mature protein without its signal peptide (surmised); also called Escherichia coli periplasmic chaperone SurA
binding: no binding (tested: 1 μM)
